From publication PMC4684333
The exact form of at least one protein or probe is not confirmed. Negatives hold for the conditions tested. For part of these data: Where cells or extracts were used, other partners may take part. For part of these data: Protein sequences can lack the tags named with them. For part of these data: The comparison behind a weaker result is the experiment's own reference, which may not be listed here.

Sequences of proteins named here, by UniProt entry; tags and fusion partners are left off.
UniProt P08515, whole entry: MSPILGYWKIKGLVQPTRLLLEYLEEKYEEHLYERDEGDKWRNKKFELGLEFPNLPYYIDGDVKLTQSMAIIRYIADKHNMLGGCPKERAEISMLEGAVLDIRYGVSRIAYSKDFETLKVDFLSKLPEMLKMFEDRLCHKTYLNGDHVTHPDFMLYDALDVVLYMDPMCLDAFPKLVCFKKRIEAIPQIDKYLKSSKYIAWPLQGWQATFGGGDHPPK

Tests used:
[1] = target: T1, FLAG-Ouib (Ouija board) (Drosophila melanogaster) (UniProt Q9VHM6); test: pull-down (ABCD assay, anti-FLAG western); details: ABCD: 50 mM Hepes pH 7.9, 150 mM NaCl, 0.5% Triton X-100, 20 ng/ul poly(dI/dC), 4 C, protein in a lysate after overexpression, protein details: N-terminal FLAG, label: 5' biotin on strand 1
T1 sequence (looked up, limits assumed): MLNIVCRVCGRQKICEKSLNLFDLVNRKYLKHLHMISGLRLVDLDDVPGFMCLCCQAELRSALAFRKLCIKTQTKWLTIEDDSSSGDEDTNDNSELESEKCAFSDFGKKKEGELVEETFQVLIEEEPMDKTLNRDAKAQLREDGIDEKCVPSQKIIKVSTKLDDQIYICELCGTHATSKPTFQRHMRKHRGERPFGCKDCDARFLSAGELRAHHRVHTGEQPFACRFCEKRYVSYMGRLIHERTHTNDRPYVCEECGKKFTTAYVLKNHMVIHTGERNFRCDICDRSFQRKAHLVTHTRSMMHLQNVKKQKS

[2] = target: T2, FLAG-M1BP (Drosophila melanogaster) (UniProt Q9VHM3); test: pull-down (ABCD assay, anti-FLAG western); details: ABCD: 50 mM Hepes pH 7.9, 150 mM NaCl, 0.5% Triton X-100, 20 ng/ul poly(dI/dC), 4 C; protein in a lysate after overexpression; protein details: N-terminal FLAG; label: 5' biotin on strand 1
T2 sequence (looked up, limits assumed): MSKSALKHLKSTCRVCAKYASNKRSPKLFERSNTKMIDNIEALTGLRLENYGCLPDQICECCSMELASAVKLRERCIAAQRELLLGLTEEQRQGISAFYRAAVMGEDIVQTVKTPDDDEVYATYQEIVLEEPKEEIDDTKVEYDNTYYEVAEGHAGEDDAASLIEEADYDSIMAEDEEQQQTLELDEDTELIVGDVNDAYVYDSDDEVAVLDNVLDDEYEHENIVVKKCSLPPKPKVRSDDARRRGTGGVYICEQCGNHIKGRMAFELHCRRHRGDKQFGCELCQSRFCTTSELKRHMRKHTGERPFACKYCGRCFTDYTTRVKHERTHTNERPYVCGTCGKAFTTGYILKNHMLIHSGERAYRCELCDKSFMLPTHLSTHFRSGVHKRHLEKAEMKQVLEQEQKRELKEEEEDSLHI

[3] = tested on: GST-Ouib-Zf (Drosophila melanogaster); test: EMSA; details: 2 mM ZnSO4, 4 mM MgCl2; EMSA: 12 mM Hepes pH 7.9, 1 mM DTT, 1 mM EDTA, 60 mM KCl, 4 mM MgCl2, 2 mM ZnSO4, 50 ng/ul poly(dI-dC), 1 mg/ml BSA, 12% glycerol, 4 C; recombinant protein; residues 150-313; protein details: N-terminal GST (pGEX-4T-3); label: 32P 5' end (probe), unlabeled as competitor
[4] = tested on: GST-Ouib-Zf (Drosophila melanogaster); test: competition with a labelled probe; details: x100 and x200 unlabeled competitor against 32P-ORE WT; EMSA: 12 mM Hepes pH 7.9, 1 mM DTT, 1 mM EDTA, 60 mM KCl, 4 mM MgCl2, 2 mM ZnSO4, 50 ng/ul poly(dI-dC), 1 mg/ml BSA, 12% glycerol, 4 C; recombinant protein; residues 150-313; protein details: N-terminal GST (pGEX-4T-3); label: 32P 5' end (probe), unlabeled as competitor
GST alone = GST alone (UniProt P08515); test: EMSA; details: 2 mM ZnSO4, 4 mM MgCl2; EMSA: 12 mM Hepes pH 7.9, 1 mM DTT, 1 mM EDTA, 60 mM KCl, 4 mM MgCl2, 2 mM ZnSO4, 50 ng/ul poly(dI-dC), 1 mg/ml BSA, 12% glycerol, 4 C; recombinant protein; protein details: GST; label: 32P 5' end (probe), unlabeled as competitor

| Sequence | binding result [2] | binding result [3] | binding result [4] | binding result [1] | also measured |
| --- | --- | --- | --- | --- | --- |
| TCGATACTCCGCACCCAGTGTGACCGTCGAGCGCATGGCATAAA (double strand) [M1BP binding site (MRE) WT, biotinylated (ABCD)] | binds |  |  |  | binding result ([1]; did not efficiently precipitate): binds more weakly |
| TCGATACTCCGCACCCAGTGTGACCGTCGAGCGCATGGCATAAA (double strand) [MRE WT (EMSA)] |  | no binding | no binding |  |  |
| TTTGGTATAGTTATAAGCTTTATTATTTAGGCACCATCTTAAAGT (double strand) [ORE WT (EMSA)] |  | binds | binds |  | binding result (GST alone): no binding |
| TTTGGTATAGTTATAAGCTTTATTATTTAGGCACCATCTTAAAGT (double strand) [spok ORE WT 45 bp, biotinylated (ABCD)] | no binding |  |  | binds |  |
| TTTGGTATAGTTATACTAGGGCGGCGGGCTGCACCATCTTAAAGT (double strand) [ORE Mut (EMSA)] |  | no binding | no binding |  |  |
| TTTGGTATAGTTATACTAGGGCGGCGGGCTGCACCATCTTAAAGT (double strand) [spok ORE Mut (transversion) 45 bp, biotinylated (ABCD)] |  |  |  | no binding |  |
